Data reported in article PMC5586252, “PP2A-B′ holoenzyme substrate recognition, regulation and role in cytokinesis” (Cell Discovery, 2017).

Target: T1, FLAG-Cyk4 (human) (UniProt Q9H0H5)
T1 sequence: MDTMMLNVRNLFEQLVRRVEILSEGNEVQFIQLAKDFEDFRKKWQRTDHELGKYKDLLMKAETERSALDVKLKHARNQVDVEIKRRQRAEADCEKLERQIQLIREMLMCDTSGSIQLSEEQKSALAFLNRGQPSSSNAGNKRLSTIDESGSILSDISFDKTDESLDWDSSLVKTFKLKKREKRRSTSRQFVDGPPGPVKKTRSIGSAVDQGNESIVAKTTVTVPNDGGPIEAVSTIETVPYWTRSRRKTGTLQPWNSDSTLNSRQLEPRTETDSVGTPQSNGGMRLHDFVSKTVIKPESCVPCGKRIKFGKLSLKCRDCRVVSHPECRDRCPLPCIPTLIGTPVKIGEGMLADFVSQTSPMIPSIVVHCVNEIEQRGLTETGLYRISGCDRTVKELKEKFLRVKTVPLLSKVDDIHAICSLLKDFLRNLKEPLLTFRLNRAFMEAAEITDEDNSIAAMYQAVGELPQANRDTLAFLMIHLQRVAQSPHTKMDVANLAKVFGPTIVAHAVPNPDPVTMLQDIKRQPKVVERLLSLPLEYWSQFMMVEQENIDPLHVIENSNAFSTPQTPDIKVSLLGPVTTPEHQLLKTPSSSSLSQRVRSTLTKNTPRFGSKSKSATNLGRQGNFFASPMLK
Assay: co-IP; HeLa transfected with FLAG-Cyk4 and V5-CIP2A, arrested with 100 μM monastrol, solvent control, collected 0–90 min after removal of monastrol; anti-FLAG IP, PP2Ac blotted

PP2Ac (PP2A catalytic C-subunit), endogenous (from UniProt P67775)
binding: binds

These are yes or no findings as the source states them, for the method shown. Binding seen in cells or lysates may run through a third protein. Binding can be weak; no strength is given. Where a sequence is shown, tags or fusion partners need not be part of it.
